Measurements: paper PMC9792197
Results are given in words; binding and its absence hold for the method and conditions named. In cells and extracts the contact can be indirect. Some entries that bind do so weakly or less than the wild type.

Sequences of proteins named here, by UniProt entry; tags and fusion partners are left off.
UniProt Q15424: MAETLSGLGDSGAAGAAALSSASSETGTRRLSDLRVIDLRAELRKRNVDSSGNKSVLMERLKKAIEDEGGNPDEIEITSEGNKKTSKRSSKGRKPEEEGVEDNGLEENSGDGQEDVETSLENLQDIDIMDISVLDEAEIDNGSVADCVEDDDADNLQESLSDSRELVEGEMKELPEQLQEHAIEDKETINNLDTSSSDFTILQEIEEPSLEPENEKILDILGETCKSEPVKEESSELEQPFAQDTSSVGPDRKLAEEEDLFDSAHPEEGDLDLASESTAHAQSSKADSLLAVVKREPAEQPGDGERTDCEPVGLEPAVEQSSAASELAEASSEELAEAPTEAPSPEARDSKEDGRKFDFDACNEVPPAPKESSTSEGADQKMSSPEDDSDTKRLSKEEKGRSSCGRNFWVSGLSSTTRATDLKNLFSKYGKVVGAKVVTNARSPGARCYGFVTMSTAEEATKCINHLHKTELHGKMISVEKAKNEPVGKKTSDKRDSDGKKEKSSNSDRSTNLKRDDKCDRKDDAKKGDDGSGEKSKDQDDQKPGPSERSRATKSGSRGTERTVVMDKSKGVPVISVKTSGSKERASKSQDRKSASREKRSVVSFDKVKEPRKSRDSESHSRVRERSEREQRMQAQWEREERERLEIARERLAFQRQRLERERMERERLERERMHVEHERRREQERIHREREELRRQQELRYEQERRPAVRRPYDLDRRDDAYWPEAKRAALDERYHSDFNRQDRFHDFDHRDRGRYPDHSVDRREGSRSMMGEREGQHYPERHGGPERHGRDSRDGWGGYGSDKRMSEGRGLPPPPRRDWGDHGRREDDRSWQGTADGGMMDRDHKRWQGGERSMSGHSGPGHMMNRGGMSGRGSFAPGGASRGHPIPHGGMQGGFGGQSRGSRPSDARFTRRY
UniProt Q96BD8: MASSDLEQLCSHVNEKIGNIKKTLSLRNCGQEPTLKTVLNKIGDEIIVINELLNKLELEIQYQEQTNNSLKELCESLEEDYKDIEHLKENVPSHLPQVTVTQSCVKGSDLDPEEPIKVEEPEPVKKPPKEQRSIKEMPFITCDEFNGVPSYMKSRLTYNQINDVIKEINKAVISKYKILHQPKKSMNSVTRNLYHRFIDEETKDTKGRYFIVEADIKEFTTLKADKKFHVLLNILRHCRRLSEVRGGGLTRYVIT

Biological target: scaffold attachment factor B (SAFB) (human (endogenous in HEK293T)) (UniProt Q15424)
Assay: co-IP; reciprocal immunoprecipitation from HEK293T lysates (SKA1-overexpressed and control), anti-SKA1 or control IgG; Western blot with anti-SKA1 or anti-SAFB; normal IgG as negative control

binding: binds
Substance: Spindle and kinetochore-associated protein 1 (SKA1) (from UniProt Q96BD8 1-255)
